# From paper PMC5996148
# Sequences of proteins named here, by UniProt entry; tags and fusion partners are left off. A change or cut given only in a name is not applied to a line headed by its entry.
# UniProt Q15527: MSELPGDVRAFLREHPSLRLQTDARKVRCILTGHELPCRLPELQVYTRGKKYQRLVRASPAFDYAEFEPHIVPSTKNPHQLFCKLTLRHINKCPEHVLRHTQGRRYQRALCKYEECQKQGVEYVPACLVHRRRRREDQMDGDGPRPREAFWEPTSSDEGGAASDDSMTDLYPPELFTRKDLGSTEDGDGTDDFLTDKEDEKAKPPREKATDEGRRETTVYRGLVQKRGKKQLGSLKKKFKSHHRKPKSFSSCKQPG
# Several values for one entry are separate records, joined by “and”; a condition that tells them apart may be missing. Equal values may be shown once. The list shows a part of the results. For some of these results: The exact form of the protein is not confirmed.
# What was measured:
# Assay in all cases: protein microarray (ProtoArray v5.0), streptavidin-Alexa Fluor 647
# Details in all cases: 3'-biotin; 20 mM Tris (pH 7.5), 5 mM MgCl2, 100 mM KCl, 0.1% Tween-20, A/T-rich and random oligonucleotide blockers; temperature not stated; high values mean tight binding
# SULT1B1 (human) = test system: SULT1B1 (human)
# SULT2B1 (human) = test system: SULT2B1 (human)
# SURF2 = SURF2 (UniProt Q15527)
# SURF4 (human) = test system: SURF4 (human)
# SUSD4 (human) = test system: SUSD4 (human)
# [1] = test system: SWI/SNF-related matrix-associated actin-dependent regulator of chromatin subfamily D member 2 (human)
# SYCE1 (human) = test system: SYCE1 (human)
# SYCP3 = target: T1, SYCP3 (UniProt Q8IZU3)
# T1 sequence: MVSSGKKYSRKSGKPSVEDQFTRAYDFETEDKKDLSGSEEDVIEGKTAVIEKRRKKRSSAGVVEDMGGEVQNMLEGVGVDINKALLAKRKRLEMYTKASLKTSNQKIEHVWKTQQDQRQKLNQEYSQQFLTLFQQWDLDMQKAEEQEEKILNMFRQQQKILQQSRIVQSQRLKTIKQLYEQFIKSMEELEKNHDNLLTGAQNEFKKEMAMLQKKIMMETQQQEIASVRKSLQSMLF
# SYMPK (human) = test system: SYMPK (human)
# SYNGR2 (human) = test system: SYNGR2 (human)
sequence,measurement,setting,value
GGTGACAGGGGTATGGGGAGGGG [G4-2 biotinylated (Ct1)],binding signal,SULT1B1 (human),-0.384 z-score
same,binding signal,SULT2B1 (human),-0.394 z-score
same,binding signal,SURF2,4.59 z-score
same,binding signal,SURF4 (human),-0.368 z-score
same,binding signal,SUSD4 (human),-0.394 z-score
same,binding signal,[1],-0.382 z-score
same,binding signal,SYCE1 (human),-0.376 z-score and -0.384 z-score
same,binding signal,SYCP3,3.54 z-score
same,binding signal,SYMPK (human),-0.383 z-score
same,binding signal,SYNGR2 (human),-0.386 z-score

# Retrieved one by one from above (two):
sequence,measurement,setting,value
GGTGACAGGGGTATGGGGAGGGG [G4-2 biotinylated (Ct1)],binding signal,SYCP3,3.54 z-score
same,binding signal,SYMPK (human),-0.383 z-score
